Most values lie at the floor of the assay. Slopes are relative: functional sequences can read slightly below zero.
Test system: Saccharomyces cerevisiae PS128 hsf1 delta, HSF1(1-493) fusion
Test: growth estimate (transactivation domain function in HSF1 fusion, heat-shock survival) (a.u. (slope of normalised read count over time)); higher = stronger growth at 37°C, i.e. more transactivation activity
Conditions: library: random library

Substance | growth estimate
RGTLKVNARVSVPSIQISNG | -0.243
RGTREVHWGPSGKIISG | -0.231
RGVAPPKFEIVSP | < -0.25
RGVDSLPDGSKGCQAQASGC | < -0.25
RGVQRLWIARSEEIIWSNRV | < -0.25
RGVS | < -0.25
RGVSERREAETLIYWAIVRL | < -0.25
RGVSRLPRWTRCSRSGVPCR | < -0.25
RGWDWQITGPC | < -0.25
RGWSIEVVWFVKSRRPSEK | < -0.25
RGWVPSIGANWPYIDITVWS | < -0.25
RGWYKS | < -0.25
RGYGFLLSLAPAALVPWTIL | < -0.25
RGYLEH | < -0.25
RGYQLFHPHLPYPC | < -0.25
RHAGLMSSHMSKIMVLKVAI | < -0.25
RHAGWMESQKIISER | -0.24
RHAVRTTFLCVIYFSLRLVE | -0.245
RHGFPALAATIQVVQHRYGQ | < -0.25
RHGIYK | < -0.25
RHGLRH | -0.239
RHGPWIGQRRFVSVQLAEIH | < -0.25
RHGRKSPRWKN | < -0.25
RHGSQDQVGHM | < -0.25

Substance | growth estimate
RHHTGLCTCVFRHFRATGLT | < -0.25
RHHTGPAFRFREPYHLPFVP | < -0.25
RHKDI | < -0.25
RHKPRFHLKNVGIRDKRRGR | < -0.25
RHLRWGCCVGSSSPAILLYT | < -0.25
RHLVIGNVAKPLRSRGNCDP | < -0.25
RHLVSPGERSGSNRDV | < -0.25
RHMVYVNKSGNLSSSGDLYT | < -0.25
RHPERSKLNFGVNEPRGPTF | < -0.25
RHPGAV | < -0.25
RHQADLRFRTQGHGGHVRGT | -0.248
RHQLYPCGKFTDTGQSNALP | < -0.25
RHRDLGTLNSGGEYDKVHFR | < -0.25
RHRI | < -0.25
RHRRGGSATYVALVYLGGTA | < -0.25
RHRSLDSSA | < -0.25
RHSGECYPSYTLLRTRLRER | < -0.25
RHSHK | < -0.25
RHSSTLGLSRIRWLLDQRRP | < -0.25
RHVRVRYDPFCNNR | < -0.25
RHVTWFGRCFRVGYNCVGEH | < -0.25
RHWRALPCIRRSAQLVVVWL | < -0.25
RIADFSPRLGGGGIVPGHDS | < -0.25
RICSGPGTSTHMPGL | < -0.25

Substance | growth estimate
RIDDILFSLWVVFAYR | < -0.25
RIEGV | < -0.25
RIESR | < -0.25
RIETAHPRLVAPVGVMICWI | < -0.25
RIFWQHQSRSS | < -0.25
RIGCHPLAGKRVRRTVAPSR | < -0.25
RIGIIEGTIQINYKFCFLLM | < -0.25
RIGL | < -0.25
RIGLK | < -0.25
RIGQMPTSAHAPSD | < -0.25
RIGSQLL | < -0.25
RIGVSHAPRSSIVGRMRSMG | < -0.25
RIGVSRRLMPAHKSGSASEG | < -0.25
RIHAWANAPHRAGFTFESCP | < -0.25
RIHDRGDPSKTV | < -0.25
RIHHEDNDVLNRQCFVRAPA | < -0.25
RILALDCPKGTMCTDLTRNV | < -0.25
RILCIVWGVCVGSDNFRQD | < -0.25
RILCVHPSSIMMSNCVRRRH | < -0.25
RILLWCAGPGGL | < -0.25
RIMNRSNALCR | < -0.25
RINDPAVNWVSGDLEDRAHA | < -0.25
RINTGGVATGAITKWWPSAP | < -0.25
RIPSVVTMERSGFQKV | < -0.25

Substance | growth estimate
RIQVRRPRLRASIQAPITHQ | < -0.25
RIRFVCVVTV | < -0.25
RISAALRSCGGCVPLKSRFA | < -0.25
RISVICSSPVIDRIRILVHG | -0.24
RISVQEMGFESVFGLTFFET | -0.0584
RITFVLRAESPLLNN | < -0.25
RITRGTIVD | < -0.25
RIVGAKLKQMVGRHHLVEPA | < -0.25
RIWDQVEVCSQVTLI | < -0.25
RIWNRCDEPSQLSDGR | < -0.25
RIWRRTCWHGSASSGVRLFL | < -0.25
RIYPLRQTSGSSPVGQEK | < -0.25
RKAHSSCHSRLWMFLCEWIT | < -0.25
RKAWWWDVTQ | < -0.25
RKCFYPLTCRVGGFPEGPLD | < -0.25
RKDL | < -0.25
RKEGHDQDCVMTLSNVAE | < -0.25
RKERT | -0.231
RKFSSCVKCPYFLACTQTFC | < -0.25
RKHF | < -0.25
RKHLKSLRCRF | < -0.25
RKHRAVVKGLRRPLGSALRH | < -0.25
RKKE | < -0.25
RKLGQASTDTPTVHRRKAFR | < -0.25

Substance | growth estimate
RKLI | < -0.25
RKLPMLGKLQLTSGGTLQLQ | -0.245
RKLRRWRPIPWIGGCYVAIL | < -0.25
RKMGGPVASMKGERG | < -0.25
RKPEGSITDRLRY | < -0.25
RKPTFDGR | < -0.25
RKRATGSRNNWA | < -0.25
RKRCSAGEVRLDGQSHRPPD | < -0.25
RKRDTN | < -0.25
RKRTGISLV | 0.101
RKRVMRGARDG | < -0.25
RKSAISGYKVDIGR | < -0.25
RKSQLGSQS | < -0.25
RKSTHGQHDAGLKFLKYSRL | < -0.25
RKSTS | < -0.25
RKTGS | < -0.25
RKTYVYSTLKQ | < -0.25
RKV | < -0.25
RKVAIMLERRIFNAIRECAS | < -0.25
RKVLAQSGHRDLEIRARSPT | < -0.25
RKWLRGRGVVPPIVFE | < -0.25
RKYPWRVTSTFLELFRQ | < -0.25
RKYRATVSLVVS | -0.243
RKYS | < -0.25

Substance | growth estimate
RLADSQMRTRGR | < -0.25
RLAHFPIERPRGRIIDTLKA | < -0.25
RLAMCYAFR | < -0.25
RLANLNLGALTSLRPGLSLA | < -0.25
RLAVAHRDTVEPIMHSLVGS | < -0.25
RLCKMGPETLPYDGTYAQHV | < -0.25
RLEQLKRKAKP | < -0.25
RLEVVAATPSLLIV | < -0.25
RLFCDHLLMLRFWATDRGFE | < -0.25
RLFFWIQEISIPRY | < -0.25
RLFGVFVVGL | < -0.25
RLFLTLKGGIV | < -0.25
RLFRRLVGVGSNRNPAGQRR | < -0.25
RLGEIFGGNRMLGYNTPSWN | < -0.25
RLGGQRAIPTGSVAPTVYA | < -0.25
RLGGVTVDQGPRTRRLTGDH | < -0.25
RLGP | < -0.25
RLHL | < -0.25
RLHRGLMGVDRTRFPPVVRG | < -0.25
RLHS | < -0.25
RLHVKLCYTPSRYTQD | -0.246
RLIRSKDIFSGDRQHFGCEE | < -0.25
RLIYESTRLTRGAPG | < -0.25
RLKHKNRLARRKSLPDRCHC | < -0.25

In a second layout: entries from further up.
Substance	growth estimate
RKV	< -0.25
RKVAIMLERRIFNAIRECAS	< -0.25
RKVLAQSGHRDLEIRARSPT	< -0.25
RKWLRGRGVVPPIVFE	< -0.25
RKYRATVSLVVS	-0.243
RKYS	< -0.25
RLADSQMRTRGR	< -0.25
RLAHFPIERPRGRIIDTLKA	< -0.25
RLAMCYAFR	< -0.25
RLANLNLGALTSLRPGLSLA	< -0.25
RLAVAHRDTVEPIMHSLVGS	< -0.25
RLCKMGPETLPYDGTYAQHV	< -0.25
RLEQLKRKAKP	< -0.25
RLEVVAATPSLLIV	< -0.25
RLFCDHLLMLRFWATDRGFE	< -0.25
RLFFWIQEISIPRY	< -0.25
RLFGVFVVGL	< -0.25
RLFLTLKGGIV	< -0.25
RLFRRLVGVGSNRNPAGQRR	< -0.25
RLGEIFGGNRMLGYNTPSWN	< -0.25
RLGGVTVDQGPRTRRLTGDH	< -0.25
RLGP	< -0.25
RLHL	< -0.25
RLHRGLMGVDRTRFPPVVRG	< -0.25
RLHS	< -0.25
RLHVKLCYTPSRYTQD	-0.246
RLIRSKDIFSGDRQHFGCEE	< -0.25
RLIYESTRLTRGAPG	< -0.25

— the supplement of paper PMC5949888
